The source of these data is article PMC4196752.

By UniProt entry, the sequences of proteins in these tests, tags left out. Where a name states a change or a piece, a line headed by the entry shows the natural chain unless it says otherwise.
UniProt Q1MTN9: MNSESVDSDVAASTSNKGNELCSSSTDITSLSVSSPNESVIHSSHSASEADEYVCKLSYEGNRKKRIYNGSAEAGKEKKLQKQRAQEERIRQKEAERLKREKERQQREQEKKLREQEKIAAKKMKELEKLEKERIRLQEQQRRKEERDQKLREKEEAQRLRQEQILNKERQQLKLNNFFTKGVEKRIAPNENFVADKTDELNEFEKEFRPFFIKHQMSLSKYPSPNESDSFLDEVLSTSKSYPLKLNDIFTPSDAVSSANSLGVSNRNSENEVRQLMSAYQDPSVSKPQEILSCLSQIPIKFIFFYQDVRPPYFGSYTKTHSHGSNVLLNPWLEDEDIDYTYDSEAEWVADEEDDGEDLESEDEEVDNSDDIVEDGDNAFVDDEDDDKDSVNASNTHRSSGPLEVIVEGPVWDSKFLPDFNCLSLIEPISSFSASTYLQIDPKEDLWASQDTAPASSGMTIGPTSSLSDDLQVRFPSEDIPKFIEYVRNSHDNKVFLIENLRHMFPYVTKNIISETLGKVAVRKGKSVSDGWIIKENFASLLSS

These are yes or no findings as the source states them, for the method shown. Binding seen in cells or lysates may run through a third protein. Binding calls can cover weak binding; strength is not graded here. Tags and fused reporters may be left off the sequences shown.

The target of this experiment is Pcf1PIP^mut-YFP (S. pombe) (UniProt Q1MTN9). Put plainly: co-IP; S. pombe extract in EB buffer (50 mM HEPES, 50 mM KOAc pH 7.5, 5 mM EGTA, 1% triton X-100); Pcf1-YFP or Pcf1PIP^mut-YFP precipitated with anti-GFP and Dynabeads protein-G at 4°C; Western blot with anti-GFP, anti-Myc, Rqh1 antibody, anti-PCNA. A general note: A western blot detects proteins with antibodies after separation by electrophoresis.

B1: Pcf2-MYC (protein, UniProt O13985 1-512)
chain: MRAEVLQIRWHYDANDDHTPIYSVDFQKNSLNKFATCGGDSKIRIWQLITSESSTKVEYLSTLSRHTQAVNVVRFNPEGNILATAGDEGTIMLWVPTNTPITTLADDAEELALAKEYWKVKIVCRSMGSEIYDLCWSVDSNFLIAGAMDNSLRLYDAHTGQLLTQKFDHSHYVQGVCWDPLNQYIVSESSDRSICLYEIQEEKKNPKKFQLVLKSRICRIEYNVTKFELISVTKPLNNDESSGISEPIETSNNNESPVSKHEALSSTANIVKDGSLERTEPPNSLNSKISYSLYCNETLVSFFRRPAFSPDGLLLVTPAGRLRPHGQPNFEVPYTAYIYTRGSITKQPVACLNGFKKPVIAVRFSPIHYELNSFSNFSFTSVSFNLPYRMVFAVACQDAVYIYDTQTCKPFYRAVNLHYSNLTDIAWNDDGNVLLMTSIDGFCSVITFEPGELGVKSQHKISLPEKRSASPSSIDDSQDNTAGGPATTTLIPRKVESSKVSKKRIAPTPVYP
For the molecule B1, the binding result is recorded as “binds”.
